{"source": "paper PMC4317163", "binders": {"B1": {"name": "ZIPIC (endogenous, embryos) (protein, UniProt Q9VAB8 1-457)", "chain": "MNCCICQFSVRVPKDIHTDTVGHPPVLISELVLQCTRGTNYVLTEESSTICKKCCEKLARYHKSIQIARKLRGEILELIHSPYMSKDHKQTSYKEDDLDRETTISKFDGNIEEAQQQDEEEQELESVGTTVTLVGPAGIVEEVAEEEHTFIIKQSEEEDEFHSVDLELDIDNEIIINEEEAHEVEEVAHEIEEVAHEIEEEDLLPHDKQEAQEEDFFKEDTMSDFDEHLDGAIEYIISDGEDQEQDNESSGEYTVNIQCPSCPEKFSSRRAYNVHTKREHFPGYVCDQCGKTLQSYSGFIGHLQNHEPVKQFACPVCPERFSRKFRLKHHMAWHSGETPYQCDVCSKRFVHKVALYKHKMIHDSETKRLECQVCGFKTRTKAHLERHMRSHTGDKPFACPVCNKRFSQMYNMKAHLREHESPGTNRHRRFHCSKCTHTFINEQNYDAHVQRDDCTPV"}, "B2": {"name": "6 × His-CP190[1–126] (domain or fragment, UniProt Q24478 1-126)", "chain": "MGEVKSVKVDNWGVFFLQKLQNFFNKTDYCDLTLQFRDNSQLKVHRLVLSACTDYFNVLEQTCEIVDDALIMPNEFQADVVVPIVNFMYTGTLEFELKMYGKLLRTAKEMNMTVLLKLLEAHRRTM"}, "B3": {"name": "6 × His-CP190[245–599] (domain or fragment, UniProt Q24478 245-599)", "chain": "KEFAEQQRMRKQIAAEYGDNDPEYDGGMLYDDVHAGDDDDDDMPPQPSTSKQQSPQGTQTQLEHGSTTIILKQDSPSQTPTIIVKDSSNAKLNHTKIIAEVLRQYPHIVKGHKNIKLKIMPNTPAAPTEKSAPATVKPPANQSSATTSPHKKLHVSFKADKSTPLITAQQKAASSQQKSGTSQTTGNQGTGANPPANTAAAQKRRIDSKTMHALIAQGAENTTGPWLCLRCGVNGRPISIPSYRGFRRHLINTHKETIDPALCEHCGWRSVNNRELHFHMYMEHQTKSLLYTFAECALCNQSYRTKGELEAHINEVHTDDNKQQCIYCNKVFEQELQLYRHMKSYHKEQALEDGI"}}, "key": {"[1]": {"target": "T1, Pita (endogenous, embryos) (Drosophila (endogenous in embryos)) (UniProt Q95RQ8)", "T1 sequence": "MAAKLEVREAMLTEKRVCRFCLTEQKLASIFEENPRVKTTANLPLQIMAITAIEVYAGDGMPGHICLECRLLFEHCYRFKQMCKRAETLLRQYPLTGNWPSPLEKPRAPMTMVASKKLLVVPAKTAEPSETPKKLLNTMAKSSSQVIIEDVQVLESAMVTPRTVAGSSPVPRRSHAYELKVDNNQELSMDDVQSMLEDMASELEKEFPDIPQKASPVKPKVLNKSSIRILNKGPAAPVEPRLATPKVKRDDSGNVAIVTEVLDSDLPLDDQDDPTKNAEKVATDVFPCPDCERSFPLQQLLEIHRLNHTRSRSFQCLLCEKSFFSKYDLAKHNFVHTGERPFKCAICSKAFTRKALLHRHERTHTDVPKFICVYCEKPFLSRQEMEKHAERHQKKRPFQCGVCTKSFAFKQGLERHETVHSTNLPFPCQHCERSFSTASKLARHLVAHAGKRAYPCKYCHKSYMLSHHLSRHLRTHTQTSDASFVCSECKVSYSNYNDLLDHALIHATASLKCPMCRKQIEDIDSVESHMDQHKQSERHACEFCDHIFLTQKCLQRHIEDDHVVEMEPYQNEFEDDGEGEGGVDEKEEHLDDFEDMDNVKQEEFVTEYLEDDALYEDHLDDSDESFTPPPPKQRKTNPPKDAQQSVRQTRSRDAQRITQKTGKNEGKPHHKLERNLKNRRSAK", "assay": "co-IP; nuclear extracts from Drosophila embryos (0-12 h) immunoprecipitated with antibodies against CP190, Pita or ZIPIC (nonspecific IgG as negative control), Western blot for Pita, ZIPIC and CP190"}, "[2]": {"target": "T2, CP190 (endogenous, embryos) (Drosophila (endogenous in embryos)) (UniProt Q24478)", "T2 sequence": "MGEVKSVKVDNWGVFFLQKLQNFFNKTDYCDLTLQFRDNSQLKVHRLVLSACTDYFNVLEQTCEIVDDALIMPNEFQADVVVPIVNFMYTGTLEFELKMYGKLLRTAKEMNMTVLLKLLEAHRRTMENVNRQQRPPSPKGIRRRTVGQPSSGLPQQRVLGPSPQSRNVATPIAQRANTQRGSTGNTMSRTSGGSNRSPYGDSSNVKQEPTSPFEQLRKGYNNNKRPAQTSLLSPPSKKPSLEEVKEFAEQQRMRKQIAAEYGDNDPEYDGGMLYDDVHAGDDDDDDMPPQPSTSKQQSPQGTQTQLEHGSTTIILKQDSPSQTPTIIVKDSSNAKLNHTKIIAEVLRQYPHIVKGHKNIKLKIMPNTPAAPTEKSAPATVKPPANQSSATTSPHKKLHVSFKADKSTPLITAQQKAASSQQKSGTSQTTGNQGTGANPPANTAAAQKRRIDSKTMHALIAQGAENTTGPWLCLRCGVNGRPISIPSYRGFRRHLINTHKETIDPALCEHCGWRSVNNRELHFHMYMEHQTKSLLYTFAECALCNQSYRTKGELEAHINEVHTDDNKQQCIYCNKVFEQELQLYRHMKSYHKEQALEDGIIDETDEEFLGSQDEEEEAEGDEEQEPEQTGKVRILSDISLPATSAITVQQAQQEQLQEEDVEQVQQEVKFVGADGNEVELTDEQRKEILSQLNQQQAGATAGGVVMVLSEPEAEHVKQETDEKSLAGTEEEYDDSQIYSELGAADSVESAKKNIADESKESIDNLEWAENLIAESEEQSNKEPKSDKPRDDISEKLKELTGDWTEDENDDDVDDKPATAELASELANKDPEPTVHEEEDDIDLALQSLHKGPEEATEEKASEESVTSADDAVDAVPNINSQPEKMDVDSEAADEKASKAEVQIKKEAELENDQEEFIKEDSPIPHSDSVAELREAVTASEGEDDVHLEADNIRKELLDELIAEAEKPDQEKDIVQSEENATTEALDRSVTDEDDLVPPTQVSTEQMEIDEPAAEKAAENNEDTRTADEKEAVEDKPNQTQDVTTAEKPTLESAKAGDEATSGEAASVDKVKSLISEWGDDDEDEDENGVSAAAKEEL", "assay": "co-IP; nuclear extracts from Drosophila embryos (0-12 h) immunoprecipitated with antibodies against CP190, Pita or ZIPIC (nonspecific IgG as negative control), Western blot for Pita, ZIPIC and CP190"}, "[3]": {"target": "T3, GST-Pita[95–209] (Drosophila) (UniProt Q95RQ8)", "T3 sequence": "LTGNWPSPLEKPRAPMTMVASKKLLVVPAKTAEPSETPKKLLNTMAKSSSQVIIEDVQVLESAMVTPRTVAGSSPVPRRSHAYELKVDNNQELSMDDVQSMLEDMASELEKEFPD", "assay": "pull-down; 6 × His (Ni-NTA) and GST (glutathione resin) pull-downs: 6 × His-CP190 fragments with GST-tagged Pita or ZIPIC fragments, coexpressed in E. coli BL21; washes with 500 mM NaCl, SDS-PAGE with Coomassie staining, anti-GST immunoblot for the 6 × His pull-down"}, "[4]": {"target": "T4, GST-ZIPIC[84–257] (Drosophila) (UniProt Q9VAB8)", "T4 sequence": "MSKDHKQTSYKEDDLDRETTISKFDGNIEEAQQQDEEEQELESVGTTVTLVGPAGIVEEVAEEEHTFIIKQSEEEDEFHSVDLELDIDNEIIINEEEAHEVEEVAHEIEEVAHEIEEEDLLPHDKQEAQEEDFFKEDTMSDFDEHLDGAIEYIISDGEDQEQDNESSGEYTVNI", "assay": "pull-down; 6 × His (Ni-NTA) and GST (glutathione resin) pull-downs: 6 × His-CP190 fragments with GST-tagged Pita or ZIPIC fragments, coexpressed in E. coli BL21; washes with 500 mM NaCl, SDS-PAGE with Coomassie staining, anti-GST immunoblot for the 6 × His pull-down"}}, "note": "No constants are given. Whether binding was seen depends on the method and setting. Binding seen in cells or lysates may run through a third protein. Some binding calls cover weakened binding; strength is not graded here. For some of these results: Tags and fused reporters may be left off the sequences shown.", "data": [{"binder": "B1", "values": [{"measurement": "binding", "setting": "[1]", "result": "binds weakly"}, {"measurement": "binding", "setting": "[2]", "result": "binds"}]}, {"binder": "B2", "values": [{"measurement": "binding", "setting": "[3]", "result": "binds"}]}, {"binder": "B3", "values": [{"measurement": "binding", "setting": "[4]", "result": "binds"}]}]}
